Laboratory results: PubChem BioAssay AID1224826 (NIAID, 2016)
The deposit covers about 17,000 reagents; shown is an unselected part. About 1,110 of them (6.6%) were called active. 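Active means lowered or raised reporter signal; replicate intensities are raw and not normalised per plate.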 Unmarked entries are inactive.

- Assay: 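Regulators of Tlr4 signalling leading to Tnf-alpha expression in macrophages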 (primary screen)
- Cells: RAW264.7 G9 macrophages from mouse bearing reporters for p65 (GFP) and the Tnf promoter (mCherry)
- Knock-down reagent: siRNA pool against mouse genes, 100 nM
- Timing: 16 h of LPS stimulation, after 2 days of siRNA transfection
- Treatment: bacterial lipopolysaccharide (Salmonella minnesota R595), 10 ng/ml
- Measurement: 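Nuclear mCherry signal of the Tnf promoter reporter measured by imaging after background removal, scaled to each plate median and turned into robust z-scores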
- Scale: Tnf reporter robust z-score: higher = stronger Tnf promoter reporter signal after LPS; Tnf reporter intensity: higher = stronger Tnf promoter reporter signal
- Rule for the call: 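Called active when robust z-score is at most -1.3, matching the median of the Tlr4 knock-down control, or over 3; control wells and wells with under 50 cells never active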
- Calls: active = Tnf reporter clearly lowered or raised; inactive = no clear change in Tnf reporter

| gene | Tnf reporter robust z-score | fewer than 50 cells in well | Tnf reporter intensity, replicate 1 | Tnf reporter intensity, replicate 2 |
| --- | --- | --- | --- | --- |
| Cebpd (GeneID 12609) | -1.84 (active) | enough cells in well | 82.7 | 39.6 |
| Prss23 (GeneID 76453) | 1.54 | enough cells in well | 151 | 95.5 |
| Mia3 (GeneID 338366) | -0.95 | enough cells in well | 101 | 108 |
| Bbox1 (GeneID 170442) | 0.11 | enough cells in well | 221 | 207 |
| Erf (GeneID 13875) | 1.33 | enough cells in well | 366 | 296 |
| Slc34a2 (GeneID 20531) | – | fewer than 50 cells per well; well left out of calls | 57.2 | 41.7 |
| Acp2 (GeneID 11432) | 1.32 | enough cells in well | 232 | 257 |
| Hoatz (GeneID 235345) | – | fewer than 50 cells per well; well left out of calls | 97.7 | 40.2 |
| Galnt2 (GeneID 108148) | 0 | enough cells in well | 228 | 149 |
| Brinp3 (GeneID 215378) | -0.01 | enough cells in well | 213 | 198 |
| Lsm3 (GeneID 67678) | -0.61 | enough cells in well | 207 | 68.5 |
| Lag3 (GeneID 16768) | 1.26 | enough cells in well | 321 | 229 |
| C4b (GeneID 12268) | 0.83 | enough cells in well | 212 | 171 |
| Setmar (GeneID 74729) | 0.17 | enough cells in well | 306 | 218 |
| Cdca8 (GeneID 52276) | – | fewer than 50 cells per well; well left out of calls | 24.5 | 75.9 |
| Kctd4 (GeneID 67516) | -0.38 | enough cells in well | 176 | 109 |
| Or2t47 (GeneID 258495) | -0.86 | enough cells in well | 118 | 92.4 |
| Med28 (GeneID 66999) | 0.35 | enough cells in well | 217 | 80.5 |
| Tipin (GeneID 66131) | -0.34 | enough cells in well | 118 | 70.8 |
| Tigd4 (GeneID 403175) | 0.59 | enough cells in well | 145 | 179 |
| Dhrs2 (GeneID 71412) | -0.11 | enough cells in well | 231 | 84.6 |
| Mgat4e (GeneID 71001) | – | fewer than 50 cells per well; well left out of calls | 135 | 68.7 |
| Tespa1 (GeneID 67596) | -0.87 | enough cells in well | 102 | 104 |
| Mcmbp (GeneID 210711) | 1.38 | enough cells in well | 429 | 101 |
